Construct, isoform or probe ends are uncertain for at least one entry. Where cells or extracts were used, other partners may take part. At least one verdict rests on a figure or table, not on a statement of the authors.
Test system: BmERR (nuclear protein, native) (Bombyx mori (D9L per Fig 7D))
Experiment: EMSA
Settings: weakened by BmERR antibody and competitor, Beyotime kit buffer (composition not given), 25 °C 25 min, 5% native PAGE in 1x TBE (45 mM Tris-borate, 1 mM EDTA, pH 8.3), protein in an extract, label: biotin 3'

Chains of the proteins cited; added tags and fusions are not shown. A change or cut given only in a name is not applied to a line headed by its entry. Chains listed by the source or under a name are the forms on record and can include a tag or linker.
BmERR (nuclear protein, native) (Bombyx mori (D9L per Fig 7D)), one chain, as listed by the source: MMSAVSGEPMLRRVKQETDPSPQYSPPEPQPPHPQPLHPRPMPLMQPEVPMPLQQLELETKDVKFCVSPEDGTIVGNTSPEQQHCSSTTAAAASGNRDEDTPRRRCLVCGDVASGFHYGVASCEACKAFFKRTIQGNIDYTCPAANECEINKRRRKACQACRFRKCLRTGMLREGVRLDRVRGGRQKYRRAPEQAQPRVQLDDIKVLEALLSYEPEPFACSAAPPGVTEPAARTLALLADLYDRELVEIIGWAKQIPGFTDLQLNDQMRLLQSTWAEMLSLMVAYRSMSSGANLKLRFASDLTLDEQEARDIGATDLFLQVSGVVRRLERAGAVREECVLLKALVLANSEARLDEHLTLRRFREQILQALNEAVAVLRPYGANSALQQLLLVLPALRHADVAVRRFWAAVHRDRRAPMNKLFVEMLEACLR

Does “AGCTTCTCCTTGACGTGTAG (double strand) [Tret1 CRE1]” bind?
Result: binds

Does “GCGGACTCACAAGGTCCTACCA (double strand) [Tret1 CRE3]” bind?
Result: binds

Does “TTTTTGTAACCTTAAACTCCT (double strand) [Tret1 CRE2]” bind?
Result: binds
